In all, about 53,000 sequences went through this assay and about 3,700 (7%) were called active.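 The calls were made as follows: active = gene knockdowns whose robust z-score for IL-1 alpha signal is at least 2 or at most -2, so actives lie on both sides; inactive = the rest.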 This is one part of the list.
Experiment: Components of the Cytosolic LPS Sensing Pathway: Gene Identification via Genome-wide siRNA Screen;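 also: robust z of the log signal after scaling to non-targeting control siRNA wells of the plate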
Details: RAW264.7 macrophages, IL-1a HTRF, actives lie on both sides, screened at 100 nM (by protocol), cells primed 5 h with Pam3CSK4 first
How it was run: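 Knockdown: 100 nM siRNA, 48h, RAW264.7. Stimulation: Pam3CSK4 5 h, then LipidA via TransIT-TKO 24 h. Output: supernatant IL-1a HTRF, negative-control-normalized, log robust z-score; viability by CellTiter-Glo.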

Row | Sequence | z-score
1 | GCCCUCUCACAUCAGUAUUTT against Lpcat2b | inactive: 0.17
2 | GCCCUUGAAGAUCAUUAGCTT against Dph7 | inactive: -0.0738
3 | GGCUGAGAAAACCAAAGGGTT against Cfdp1 | inactive: 1.9
4 | GGCUUUUAUUUUCUGGGAUTT against Barhl1 | active: 2.4
5 | CCCAUGAUUCCAGAAAAGATT against Mfsd4b5 | inactive: 0.57
6 | GGAGGAAAUGAUCACAGCUTT against Ccl20 | active: -2.31
7 | GGUCUACUUCUUUUUUACGTT against Sema4d | inactive: 0.467
8 | GACCUUCUACAGAUAUUACTT against Dbr1 | inactive: -0.452
9 | GGGCCAAUUCUGAAACUUGTT against Il1f5 | inactive: 0.669
10 | GCUAGAGGUAUCAUGCUGATT against B4galt6 | inactive: -0.0925
11 | GGAGAGUCUUGGAAAGGAATT against 3110082I17Rik | inactive: 0.79
12 | GGAGUGAGUCCUGAAGCAATT against Ifna12 | inactive: -0.372
13 | GGAUAGAACUCUAAGCCGUTT against Nkx2-2 | inactive: 0.626
14 | CGACUUUAAUUCCAAUCCUTT against Tmem97 | inactive: -1.35
15 | GGUCAAUGGAGUUAGAAUATT against Atrn | inactive: 0.0344
16 | GGACAUUCAGAAACAGAAGTT against Zfp451 | inactive: -0.959
17 | GGAAAUGACAAGUAUGAAGTT against Gria4 | inactive: -1.33
18 | GGUUCGACUUUCUUUGCCATT against Ola1 | inactive: -0.614
19 | GGAUCCAGUAACCAUCAUGTT against Arhgap22 | inactive: 0.095
20 | CCUAUUCCUAACCACAAGATT against Plpp2 | inactive: 1.51
21 | CCCUUGAAGAUGAAACCAGTT against Smarca5 | inactive: -0.277
22 | GGGUAUGCAUGAGCUACUATT against Tbc1d5 | inactive: -1.27

Row | Sequence | z-score
23 | CCUACAAAGUGGAUGUAAUTT against Fgfrl1 | inactive: -0.429
24 | CGGUUGAACCGGCCUCUUATT against Aco2 | inactive: 0.557
25 | GGUGCAAACGUAAACAUGATT against Asb4 | inactive: -0.79
26 | CCGGUUACCAAUUGAUAAATT against Smc3 | inactive: -1.15
27 | GGAGGAAGAACUGUCUUUGTT against Wasf1 | inactive: 0.221
28 | GGAAUCAAUGUCUCAGCCATT against Fscn2 | inactive: -0.329
29 | CGUUACUAUUUGAUCCACCTT against Nrp2 | inactive: 0.743
30 | CCGAACUCCUCAGAAUACGTT against Sidt1 | inactive: 0.639
31 | GGACCAACAUAACCUCUACTT against Tet3 | inactive: 0.776
32 | GGAGUUGGAUAUUAUCUAUTT against Drg1 | inactive: 1.04
33 | GGAAGAUGGGCUAUUUCAUTT against Gabra6 | inactive: 0.545
34 | CCAUGUGCGACCUGAUAAUTT against Cmtm7 | inactive: 0.155
35 | UCUGCUCAACAUCGUCAAUTT against Sstr3 | inactive: 0.719
36 | GGGCACUGAGUCUCCAAAATT against Rhbdf2 | inactive: 0.388
37 | GGAGAAACGAAAAGACUCUTT against Brpf1 | active: -2.25
38 | GCCUUACUGGGUUACUUGUTT against Cdkn2d | active: 3.22
39 | GGAUUCAAUUUUUUGCCAUTT against Pbdc1 | inactive: -1.74
40 | GGACUUUGAUGUUGAAUGUTT against Rapgef1 | inactive: -0.985
41 | CCAAAAGAGUUUUACAGGGTT against Lhx9 | inactive: -0.119
42 | CCGCUUUAAGAUAAACACUTT against Rpusd2 | inactive: 0.319
43 | CCUCCUGAUCAGAAAAGAUTT against Oplah | inactive: -0.168
44 | GGCUCAACUGUGUUAAACATT against Tnfrsf4 | inactive: -0.573

Row | Sequence | z-score
45 | CUGUCUUAUGGAGUUGUGATT against Olfr270 | inactive: -0.704
46 | GCAGAAAAACUAAUGUACATT against Arhgap5 | inactive: 0.899
47 | GGGAACAAAAUAGAAACCATT against Lgi2 | inactive: -1.58
48 | GGGAGCUCCAAGGUUACUUTT against Zfp658 | inactive: 1.26
49 | CGGUAGGUUAAAACAGAUGTT against Rnf152 | inactive: -0.0276
50 | GGUACCAGGUAUCUUCAUUTT against Pard6g | active: 2.95
51 | GGCAUAUUUGCCUGCAUAATT against Nkain4 | inactive: 1.93
52 | CCCUCUGUAUUGCGUACCUTT against Dusp14 | inactive: 0.264
53 | GGUGGAUAGUUAUAAAGCATT against Cep120 | inactive: -0.671
54 | GGGACAAAUAAUGAUGUGUTT against Dmbt1 | inactive: -1.6
55 | GGGAUUCGAAGGACAAUAGTT against Vmn1r211 | active: -2.07
56 | GCUGGGUCCACAUGAAUCATT against Sucnr1 | active: 2.7
57 | GGCAAUAACAGGAAAUCAATT against Pkp1 | inactive: -0.148
58 | GGACUUAUGUUGAAAACAGTT against Mapk8 | inactive: -0.991
59 | CCAGUUUCUGUUCUUCCCUTT against Clvs1 | inactive: -0.298
60 | GGUGAAUGAGAUGUCGGCCTT against Borcs5 | inactive: 0.0925
61 | GGAGCAAAGAAAUAAAAGGTT against Olfr851 | inactive: -0.338
62 | GCAACUACCCAAGUGGAAGTT against Tdrd12 | inactive: 1.04
63 | CGAAAGAUGGUGAGUCGGUTT against Ppp1r10 | inactive: -1.27
64 | GGUGCAUGCCAUUGAGUUUTT against Trim23 | inactive: -0.161
65 | GGAUGUAACUGAAAGAGAATT against Fam133b | inactive: -1.11
66 | GGAAAACAAACUGCACUUCTT against Sdf4 | inactive: -0.577

Row | Sequence | z-score
67 | GGCUUUCAAAUGAUUAAAGTT against Wdr60 | inactive: 0.435
68 | GAAGGUUCCUCUGUAAAAATT against Defb13 | inactive: -1.45
69 | CCUAGUUCCCAAAGAGUGGTT against Tcp11l1 | inactive: 0.191
70 | AACCUCAAAUGUUCAGUCCTT against Lce3f | inactive: 1.04
71 | GGACCAGGAUGAGAAGAUUTT against Trim42 | inactive: -0.499
72 | GGUUGAACAACUCUCUGCUTT against Hrh2 | inactive: -0.385
73 | CGGCCUCAAUUUACAGCUATT against Naprt | inactive: 0.357
74 | GCCGGGCUCGCCCUGCUCCTT against Plac9a | inactive: 0.497
75 | CCCUUAGACAAACAUGCUATT against Zfp446 | inactive: -0.368
76 | GCUGUGCAGAUUAAAUUUGTT against Rsbn1 | inactive: -0.558
77 | GGAGAUGGAGAAGUAGAUUTT against Abcf2 | inactive: 0.224
78 | GGAAAGAGGAUAUUAAGUUTT against Wdr33 | inactive: 1.73
79 | GGCAGUUAUUUCUAUCUUATT against 1700018F24Rik | inactive: 0.683
80 | GGAGAUUCGGCAUUAAGACTT against Gtpbp8 | inactive: -0.675
81 | GCUUUUGUAUACCUACUGUTT against Gtf3c3 | inactive: -1.02
82 | GCUUCCUUAUUGACAAUGGTT against Rbm19 | inactive: 0.596
83 | GCAUCGUGUGCAAGAUCCUTT against Atp4b | active: 2.74
84 | GGUGGUCUCCUACAAUGCCTT against Olfr1451 | active: 2.3
85 | GGUGAUUCAUGUGAACUCATT against Zfp27 | inactive: -0.511
86 | GGAGAAGAGCAGAAUAUGCTT against Baz1a | inactive: -1.48
87 | GGAUUAAAGAAAGACAUUGTT against Yme1l1 | active: -2.04
88 | GGCAUAGCCACUAAAAAAATT against Muc2 | inactive: -0.832

Row | Sequence | z-score
89 | GGUAGGGUUUCAUUAUGAATT against Med28 | inactive: -1.38
90 | GGAGGUAUUCAAGAUUUGATT against Exoc5 | inactive: 0.466
91 | GCUACCUAAGUUGAAAAAGTT against Anp32b | inactive: 0.546
92 | GGGAUACAUCUAUUGAAUCTT against Zfp758 | inactive: -1.26
93 | GCACAUUGGCUGUGAGUCATT against Tmem132a | inactive: 0.512
94 | GCAAAGCCCUAUUCCUAAUTT against Vmn2r42 | inactive: 1.21
95 | GGCUAAAUCUAGCUACUAATT against Lair1 | inactive: 1.89
96 | GGAAGACUUGUUUGACAUUTT against Stk11 | inactive: 0.298
97 | GCUAACAACGUGUGCUUCUTT against Fam20a | inactive: -0.174
98 | GCUACAGGAUUUAUACAUGTT against Dhx29 | inactive: 0.865
99 | GGUAUGUAACUUCUUCAUUTT against Irf2bpl | inactive: 0.616
100 | GCAGAUUACUUCCAUCAGUTT against Rps20 | inactive: -0.988
101 | GCCCUUGUUAGGUCUUGUCTT against Stard8 | inactive: -1.91
102 | CCCUGACAUUUGGAAUGUUTT against Gtsf1l | inactive: -1.06
103 | GGUUGGAAAAUGAAUGAAATT against Slc44a2 | inactive: 0.236
104 | GCUGUUCCGUAGCCAGAGUTT against Homer3 | inactive: 0.382
105 | GGUUAAAGUUAAAUCUGUCTT against C6 | active: -2.35
106 | GGAAGAAAGUGAAACUUGATT against Dnajc17 | inactive: 0.0498
107 | GGACGAAGAGGAGAAAGAGTT against Ccdc184 | inactive: -1.25

Source: PubChem BioAssay AID1508600 (Functional Genomics Laboratory (NCATS/FGL), 2020)
